Measured values from the supplement of paper PMC10849652.
Some of the results follow.

Amino acid sequences for entries named in this document (tags omitted). A change or cut given only in a name is not applied to a line headed by its entry.
UniProt P0DMU8: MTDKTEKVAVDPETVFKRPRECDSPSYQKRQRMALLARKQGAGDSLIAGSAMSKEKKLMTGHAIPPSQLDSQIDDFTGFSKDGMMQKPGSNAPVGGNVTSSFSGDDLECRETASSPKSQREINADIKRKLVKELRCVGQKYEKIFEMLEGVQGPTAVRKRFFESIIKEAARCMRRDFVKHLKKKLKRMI
UniProt O43310: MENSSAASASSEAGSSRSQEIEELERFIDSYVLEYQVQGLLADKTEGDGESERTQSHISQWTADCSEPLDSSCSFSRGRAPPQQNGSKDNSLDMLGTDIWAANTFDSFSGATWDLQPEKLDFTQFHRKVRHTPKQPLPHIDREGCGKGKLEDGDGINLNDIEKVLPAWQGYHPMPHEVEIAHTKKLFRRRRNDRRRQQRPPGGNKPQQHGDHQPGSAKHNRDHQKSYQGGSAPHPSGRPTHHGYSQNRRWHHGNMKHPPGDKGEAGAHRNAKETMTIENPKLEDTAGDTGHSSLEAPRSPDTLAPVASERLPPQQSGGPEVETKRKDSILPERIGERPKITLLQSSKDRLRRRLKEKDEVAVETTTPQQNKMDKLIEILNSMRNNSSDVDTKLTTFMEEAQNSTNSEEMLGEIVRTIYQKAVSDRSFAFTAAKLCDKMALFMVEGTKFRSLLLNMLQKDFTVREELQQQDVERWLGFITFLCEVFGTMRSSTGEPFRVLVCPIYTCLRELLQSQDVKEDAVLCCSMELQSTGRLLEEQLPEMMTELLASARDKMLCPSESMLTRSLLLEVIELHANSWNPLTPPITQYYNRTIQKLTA
UniProt Q13561, whole entry, looked up: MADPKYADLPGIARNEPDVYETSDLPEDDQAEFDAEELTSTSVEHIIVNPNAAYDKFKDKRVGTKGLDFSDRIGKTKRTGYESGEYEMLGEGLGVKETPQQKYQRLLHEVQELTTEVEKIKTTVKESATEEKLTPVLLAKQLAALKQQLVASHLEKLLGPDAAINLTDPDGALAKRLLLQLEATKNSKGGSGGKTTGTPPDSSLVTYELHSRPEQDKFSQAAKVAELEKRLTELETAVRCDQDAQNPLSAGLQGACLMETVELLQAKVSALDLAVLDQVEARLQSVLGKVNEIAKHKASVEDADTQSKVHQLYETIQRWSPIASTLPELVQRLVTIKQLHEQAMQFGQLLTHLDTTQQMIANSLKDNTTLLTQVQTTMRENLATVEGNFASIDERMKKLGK
UniProt P04080: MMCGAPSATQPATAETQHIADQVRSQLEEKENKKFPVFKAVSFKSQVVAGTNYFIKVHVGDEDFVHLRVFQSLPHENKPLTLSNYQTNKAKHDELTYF
UniProt Q9NV06: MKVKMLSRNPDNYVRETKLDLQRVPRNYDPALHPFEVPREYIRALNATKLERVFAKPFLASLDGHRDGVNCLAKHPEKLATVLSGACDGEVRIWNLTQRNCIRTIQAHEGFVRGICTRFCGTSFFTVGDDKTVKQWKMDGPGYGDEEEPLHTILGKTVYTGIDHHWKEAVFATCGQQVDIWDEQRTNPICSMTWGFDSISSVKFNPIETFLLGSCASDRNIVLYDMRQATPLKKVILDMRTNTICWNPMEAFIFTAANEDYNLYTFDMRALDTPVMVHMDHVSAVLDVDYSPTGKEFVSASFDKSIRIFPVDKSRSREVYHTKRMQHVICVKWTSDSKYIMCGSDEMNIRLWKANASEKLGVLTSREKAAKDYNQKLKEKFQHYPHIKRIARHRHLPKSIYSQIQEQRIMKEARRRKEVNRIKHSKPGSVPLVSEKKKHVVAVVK
UniProt Q14118: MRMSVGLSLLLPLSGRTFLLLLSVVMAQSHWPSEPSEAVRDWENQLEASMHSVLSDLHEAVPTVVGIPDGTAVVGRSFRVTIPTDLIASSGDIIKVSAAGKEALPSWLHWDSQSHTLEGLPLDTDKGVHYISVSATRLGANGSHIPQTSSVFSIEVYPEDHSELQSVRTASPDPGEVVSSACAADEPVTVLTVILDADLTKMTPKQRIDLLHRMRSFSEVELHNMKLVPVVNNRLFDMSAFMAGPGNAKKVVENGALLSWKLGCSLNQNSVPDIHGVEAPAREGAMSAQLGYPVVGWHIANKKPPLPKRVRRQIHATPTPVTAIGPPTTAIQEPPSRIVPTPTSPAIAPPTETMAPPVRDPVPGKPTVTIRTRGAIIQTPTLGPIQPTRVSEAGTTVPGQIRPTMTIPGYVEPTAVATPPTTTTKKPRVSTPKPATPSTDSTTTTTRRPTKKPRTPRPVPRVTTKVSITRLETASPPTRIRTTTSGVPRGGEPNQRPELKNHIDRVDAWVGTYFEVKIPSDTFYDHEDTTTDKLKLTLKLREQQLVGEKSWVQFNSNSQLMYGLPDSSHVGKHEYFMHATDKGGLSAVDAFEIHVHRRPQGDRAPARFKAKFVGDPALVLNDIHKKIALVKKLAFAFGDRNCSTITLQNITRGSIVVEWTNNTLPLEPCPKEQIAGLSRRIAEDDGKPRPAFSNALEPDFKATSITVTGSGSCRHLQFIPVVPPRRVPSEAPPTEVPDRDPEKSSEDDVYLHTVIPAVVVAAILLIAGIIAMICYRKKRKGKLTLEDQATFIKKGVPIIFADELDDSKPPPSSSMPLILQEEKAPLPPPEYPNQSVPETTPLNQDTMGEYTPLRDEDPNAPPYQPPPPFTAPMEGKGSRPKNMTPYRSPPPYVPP
UniProt P14868: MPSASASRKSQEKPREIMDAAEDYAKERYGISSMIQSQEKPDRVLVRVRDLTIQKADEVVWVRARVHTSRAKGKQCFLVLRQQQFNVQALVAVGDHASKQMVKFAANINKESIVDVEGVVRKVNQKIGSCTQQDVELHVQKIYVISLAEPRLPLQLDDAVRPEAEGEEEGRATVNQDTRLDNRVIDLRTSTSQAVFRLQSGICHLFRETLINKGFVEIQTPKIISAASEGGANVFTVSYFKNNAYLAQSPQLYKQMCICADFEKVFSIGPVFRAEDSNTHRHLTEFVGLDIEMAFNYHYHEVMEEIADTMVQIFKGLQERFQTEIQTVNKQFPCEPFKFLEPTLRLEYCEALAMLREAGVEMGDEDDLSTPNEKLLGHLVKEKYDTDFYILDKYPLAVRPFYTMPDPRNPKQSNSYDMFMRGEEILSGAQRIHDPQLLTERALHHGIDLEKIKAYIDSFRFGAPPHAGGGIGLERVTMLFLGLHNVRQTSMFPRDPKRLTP
UniProt Q9NWV4: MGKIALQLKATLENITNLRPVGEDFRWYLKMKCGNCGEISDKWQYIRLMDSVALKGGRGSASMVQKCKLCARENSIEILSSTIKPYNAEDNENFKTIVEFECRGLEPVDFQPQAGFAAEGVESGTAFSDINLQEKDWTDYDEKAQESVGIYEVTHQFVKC
UniProt Q96C57: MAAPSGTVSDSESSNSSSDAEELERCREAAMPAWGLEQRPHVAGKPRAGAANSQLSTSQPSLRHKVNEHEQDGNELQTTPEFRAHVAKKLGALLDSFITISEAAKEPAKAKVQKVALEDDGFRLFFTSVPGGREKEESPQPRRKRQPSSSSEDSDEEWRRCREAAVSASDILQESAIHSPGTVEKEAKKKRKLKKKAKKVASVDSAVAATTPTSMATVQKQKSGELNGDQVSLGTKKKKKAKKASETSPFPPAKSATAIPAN
UniProt Q9UBR2: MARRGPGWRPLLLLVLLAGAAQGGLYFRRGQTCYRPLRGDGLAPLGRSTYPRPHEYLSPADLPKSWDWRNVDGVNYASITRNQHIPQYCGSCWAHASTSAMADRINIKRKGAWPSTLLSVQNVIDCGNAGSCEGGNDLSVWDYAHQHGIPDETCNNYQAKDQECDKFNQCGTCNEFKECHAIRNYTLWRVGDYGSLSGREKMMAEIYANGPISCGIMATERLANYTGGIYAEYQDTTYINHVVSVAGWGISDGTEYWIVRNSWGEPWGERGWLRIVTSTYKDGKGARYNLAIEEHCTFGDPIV
UniProt Q96C86: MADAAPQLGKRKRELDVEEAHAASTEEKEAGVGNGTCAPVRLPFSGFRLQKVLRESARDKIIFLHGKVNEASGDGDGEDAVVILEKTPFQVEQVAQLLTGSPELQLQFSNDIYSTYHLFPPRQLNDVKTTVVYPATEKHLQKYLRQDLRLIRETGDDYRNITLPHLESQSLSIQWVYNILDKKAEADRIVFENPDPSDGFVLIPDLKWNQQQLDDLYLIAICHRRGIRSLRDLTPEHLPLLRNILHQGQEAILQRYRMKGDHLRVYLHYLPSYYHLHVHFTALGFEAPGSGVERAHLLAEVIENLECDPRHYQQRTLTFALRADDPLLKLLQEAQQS
UniProt P61962: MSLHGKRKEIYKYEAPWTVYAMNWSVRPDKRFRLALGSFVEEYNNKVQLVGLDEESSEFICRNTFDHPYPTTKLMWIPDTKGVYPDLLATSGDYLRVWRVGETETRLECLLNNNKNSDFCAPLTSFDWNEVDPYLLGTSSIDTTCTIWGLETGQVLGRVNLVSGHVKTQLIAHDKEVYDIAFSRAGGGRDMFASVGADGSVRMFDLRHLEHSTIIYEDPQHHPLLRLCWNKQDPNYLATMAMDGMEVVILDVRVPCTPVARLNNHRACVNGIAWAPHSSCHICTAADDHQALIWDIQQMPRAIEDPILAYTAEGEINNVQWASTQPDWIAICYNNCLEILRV
UniProt Q8NBI2: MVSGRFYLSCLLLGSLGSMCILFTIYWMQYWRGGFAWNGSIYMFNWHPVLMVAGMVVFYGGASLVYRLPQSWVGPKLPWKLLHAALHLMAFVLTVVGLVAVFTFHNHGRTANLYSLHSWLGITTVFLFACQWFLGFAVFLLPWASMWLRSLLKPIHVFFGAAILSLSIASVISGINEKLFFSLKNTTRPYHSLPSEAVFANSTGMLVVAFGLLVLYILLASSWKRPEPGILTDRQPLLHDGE
UniProt Q9P013: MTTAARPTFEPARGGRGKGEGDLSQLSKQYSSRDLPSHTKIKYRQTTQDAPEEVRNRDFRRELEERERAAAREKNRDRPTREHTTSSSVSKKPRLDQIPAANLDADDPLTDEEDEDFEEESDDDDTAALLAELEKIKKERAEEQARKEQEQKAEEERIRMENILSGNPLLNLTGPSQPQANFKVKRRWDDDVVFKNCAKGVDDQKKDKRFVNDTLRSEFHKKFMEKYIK
UniProt Q9NXF7, whole entry, looked up: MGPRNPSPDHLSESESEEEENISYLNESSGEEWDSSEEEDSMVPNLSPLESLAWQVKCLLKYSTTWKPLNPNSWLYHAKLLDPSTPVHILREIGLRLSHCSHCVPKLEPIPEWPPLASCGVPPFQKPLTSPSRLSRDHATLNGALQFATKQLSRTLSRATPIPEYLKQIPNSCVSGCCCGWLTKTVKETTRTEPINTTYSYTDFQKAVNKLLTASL
UniProt P50461: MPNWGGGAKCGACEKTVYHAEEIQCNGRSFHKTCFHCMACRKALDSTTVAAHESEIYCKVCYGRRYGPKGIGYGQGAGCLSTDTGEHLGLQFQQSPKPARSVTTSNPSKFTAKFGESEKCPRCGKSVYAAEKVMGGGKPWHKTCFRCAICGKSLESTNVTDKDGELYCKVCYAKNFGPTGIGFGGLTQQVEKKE
UniProt Q9H1C7: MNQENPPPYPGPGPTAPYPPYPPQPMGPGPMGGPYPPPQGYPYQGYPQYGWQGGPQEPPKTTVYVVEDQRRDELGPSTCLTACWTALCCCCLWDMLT
UniProt Q9BTE1, whole entry, looked up: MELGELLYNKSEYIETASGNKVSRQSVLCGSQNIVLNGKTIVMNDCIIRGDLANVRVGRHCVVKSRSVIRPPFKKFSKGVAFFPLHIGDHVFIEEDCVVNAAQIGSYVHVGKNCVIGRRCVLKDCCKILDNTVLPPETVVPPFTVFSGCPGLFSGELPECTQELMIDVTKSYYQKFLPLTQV
UniProt Q93034, whole entry, looked up: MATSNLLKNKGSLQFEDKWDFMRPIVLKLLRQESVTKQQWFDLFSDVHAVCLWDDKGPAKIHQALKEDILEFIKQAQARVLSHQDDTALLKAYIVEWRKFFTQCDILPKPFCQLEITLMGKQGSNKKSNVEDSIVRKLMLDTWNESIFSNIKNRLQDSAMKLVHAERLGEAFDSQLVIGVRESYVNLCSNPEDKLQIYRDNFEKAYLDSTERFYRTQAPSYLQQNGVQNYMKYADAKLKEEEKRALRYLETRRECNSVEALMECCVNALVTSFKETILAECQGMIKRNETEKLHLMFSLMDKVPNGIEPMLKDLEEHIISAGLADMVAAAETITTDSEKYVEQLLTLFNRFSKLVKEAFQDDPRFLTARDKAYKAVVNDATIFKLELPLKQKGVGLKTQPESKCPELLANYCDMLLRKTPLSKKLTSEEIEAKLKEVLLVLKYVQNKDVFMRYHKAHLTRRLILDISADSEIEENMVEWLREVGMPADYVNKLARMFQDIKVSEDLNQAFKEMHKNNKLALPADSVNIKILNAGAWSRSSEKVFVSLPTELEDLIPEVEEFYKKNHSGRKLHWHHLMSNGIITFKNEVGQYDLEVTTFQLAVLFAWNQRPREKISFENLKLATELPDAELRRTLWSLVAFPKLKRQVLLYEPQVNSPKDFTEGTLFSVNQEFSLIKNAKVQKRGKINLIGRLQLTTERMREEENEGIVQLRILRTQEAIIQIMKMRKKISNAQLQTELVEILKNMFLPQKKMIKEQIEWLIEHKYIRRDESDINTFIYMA

How the values were obtained:
Assay in all cases: log2 fold change, soluble protein after heating vs DMSO (PISA); higher = thermal stabilisation; K562 cells, 10 uM, 30 min; active = over 0.2 and 3.5 SD of the protein, either way, in both replicates (recomputed)
erlotinib = compound: C#Cc1cccc(Nc2ncnc3cc(OCCOC)c(OCCOC)cc23)c1 [erlotinib]
How it was run: (§1)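 K562 cells at 2×10^6 cells/mL were treated for 30 min with 10 μM compound, and aliquots were heated for 3 min over 48°C-58°C before pooling. Extraction used PBS with 0.5% NP-40 at 4°C, and soluble protein was the supernatant after 21,000xg for 90 min, measured by TMTpro 16plex LC-MS/MS with channel sums equalised. Thermal stability values, relative to control samples and from duplicates, are log2 fold changes.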

[1] = compound: C/C(=N\NC(=O)C1=CC(=CC=C1)S(=O)(=O)N2CCOCC2)/C3=C(C=CC(=C3)Cl)O
How it was run: as §1

[2] = compound: C1=CC(=C(C=C1Cl)C2=NC3=NC=CN=C3C(=N2)NC4=CC=NC=C4)F
How it was run: as §1

[3] = compound: C1=CC(=CC=C1C2=NC3=C(N2)C=C(C=C3)C(=O)N)OC4=CC=C(C=C4)Cl
How it was run: as §1

[4] = compound: C1=CC2=C(C=CC(=C2)/C=C\3/C(=O)NC(=NCC4=CC=CS4)S3)N=C1
How it was run: as §1

[5] = compound: C1=CC2=NC=CN=C2C=C1/C=C/3\C(=O)NC(=O)S3
How it was run: as §1

[6] = compound: C1=CC=C(C=C1)C2=NC(=C(N2)C3=CC=NC=C3)C4=CC(=C(C=C4)Cl)O
How it was run: as §1

[7] = compound: C1=CC=C2C(=C1)C3=NNC4=CC=CC(=C43)C2=O
How it was run: as §1

[8] = compound: C1CCN(C1)C(=O)NC2=CC=CC(=C2)NC3=NC=C(C(=N3)NCCC4=CN=CN4)Br
How it was run: as §1

[9] = compound: C1CN(CCC1(CC2=CC=C(C=C2)Cl)N)C3=NC=NC4=C3C=CN4
How it was run: as §1

Measured: log2 fold change

CT45A5 (UniProt P0DMU8)
inactive: erlotinib -0.081 | [1] -0.116 | [2] -0.198 | [3] 0.035 | [4] -0.059 | [5] 0.015 | [6] 0.101 | [7] 0.027 | [8] 0.065 | [9] -0.097

DCTN1 isoform 4 (UniProt Q14203)
inactive: erlotinib 0.04 | [1] 0.031 | [2] -0.053 | [3] -0.033 | [4] 0.037 | [5] -0.009 | [6] -0.023 | [7] 0.05 | [8] 0.046 | [9] -0.072

DCAF15 (UniProt Q66K64)
inactive: erlotinib 0.065 | [1] 0.296 | [2] -0.046 | [3] -0.022 | [4] -0.167 | [5] 0.067 | [6] -0.112 | [7] -0.041 | [8] -0.105 | [9] 0.079

CUL2 isoform 2 (UniProt Q13617)
inactive: erlotinib -0.032 | [1] 0.05 | [2] 0.07 | [3] 0.001 | [4] 0.043 | [5] 0.024 | [6] 0.046 | [7] 0.009 | [8] 0.051 | [9] 0.02

CTIF isoform 2 (UniProt O43310)
inactive: erlotinib -0.039 | [1] -0.018 | [2] -0.027 | [3] 0.015 | [4] 0.073 | [5] 0.116 | [6] -0.006 | [7] -0.011 | [8] 0.099 | [9] 0.025

DCTN2 isoform 2 (UniProt Q13561)
inactive: erlotinib -0.005 | [1] 0.064 | [2] 0.08 | [3] 0.011 | [4] 0.007 | [5] 0.024 | [6] 0.032 | [7] 0.008 | [8] 0.002 | [9] -0.048

DAP3 (UniProt P51398)
inactive: erlotinib -0.065 | [1] -0.019 | [2] -0.139 | [3] 0.138 | [4] -0.061 | [5] -0.031 | [6] 0.014 | [7] 0.103 | [8] -0.03 | [9] -0.129

CSTB (UniProt P04080)
inactive: erlotinib -0.047 | [1] 0.05 | [2] 0.15 | [3] 0.003 | [4] 0.115 | [5] -0.028 | [6] 0.047 | [7] -0.007 | [8] 0.002 | [9] 0.013

DCAF13 (UniProt Q9NV06)
inactive: erlotinib -0.085 | [1] -0.172 | [2] -0.441 | [3] 0.079 | [4] -0.114 | [5] -0.05 | [6] -0.034 | [7] -0.047 | [8] 0.044 | [9] -0.094

DAG1 (UniProt Q14118)
inactive: erlotinib 0.055 | [1] 0.067 | [2] -0.043 | [3] 0 | [4] -0.038 | [5] -0.037 | [6] -0.154 | [7] -0.06 | [8] -0.009 | [9] 0.035

DARS (UniProt P14868)
inactive: erlotinib 0.002 | [1] 0.003 | [2] -0.06 | [3] 0.002 | [4] -0.026 | [5] 0.011 | [6] -0.021 | [7] -0.023 | [8] 0.008 | [9] 0.015

CXorf38 (UniProt Q8TB03)
inactive: erlotinib -0.093 | [1] 0.029 | [2] -0.007 | [3] 0.012 | [4] 0.05 | [5] 0.05 | [6] -0.054 | [7] 0.061 | [8] -0.028 | [9] 0.033

CZIB (UniProt Q9NWV4)
inactive: erlotinib -0.04 | [1] -0.021 | [2] 0.038 | [3] -0.003 | [4] -0.001 | [5] 0.021 | [6] -0.008 | [7] -0.013 | [8] 0.008 | [9] -0.007

CUSTOS (UniProt Q96C57)
inactive: erlotinib -0.005 | [1] -0.025 | [2] -0.085 | [3] 0.036 | [4] -0.025 | [5] 0.026 | [6] -0.057 | [7] -0.01 | [8] -0.004 | [9] 0.011

CTSZ (UniProt Q9UBR2)
inactive: erlotinib 0.053 | [1] -0.025 | [2] 0.027 | [3] -0.047 | [4] -0.013 | [5] 0.023 | [6] -0.017 | [7] 0.073 | [8] 0.057 | [9] 0.09

DCPS (UniProt Q96C86)
inactive: erlotinib 0.03 | [1] 0.032 | [2] 0.017 | [3] 0.007 | [4] -0.035 | [5] 0.003 | [6] -0.033 | [7] -0.009 | [8] 0.039 | [9] 0.06

DCAF7 (UniProt P61962)
inactive: erlotinib 0.013 | [1] -0.046 | [2] -0.058 | [3] 0.035 | [4] -0.028 | [5] -0.063 | [6] -0.071 | [7] -0.029 | [8] -0.005 | [9] -0.018

CYB561A3 isoform 2 (UniProt Q8NBI2)
inactive: erlotinib -0.021 | [1] -0.016 | [3] 0.02 | [4] -0.005 | [5] 0.114 | [6] 0.043 | [7] -0.034 | [8] -0.01 | [9] 0.069

CWC15 (UniProt Q9P013)
inactive: erlotinib -0.01 | [1] -0.032 | [2] -0.004 | [3] 0.009 | [4] 0.006 | [5] 0.056 | [6] -0.025 | [7] -0.038 | [8] 0.013 | [9] -0.019

DCAF16 (UniProt Q9NXF7)
inactive: erlotinib 0.051 | [1] 0.042 | [2] 0.036 | [3] 0 | [4] -0.034 | [5] -0.002 | [6] -0.001 | [7] 0.048 | [8] 0.039 | [9] -0.127

CSRP3 (UniProt P50461)
inactive: erlotinib 0.086 | [1] -0.072 | [3] -0.203 | [4] 0.039 | [5] 0.02 | [6] -0.061 | [7] -0.053 | [8] 0.025 | [9] 0.027

CYSTM1 (UniProt Q9H1C7)
inactive: erlotinib 0.037 | [1] -0.064 | [3] 0.001 | [4] -0.197 | [5] 0.204 | [6] -0.033 | [7] -0.078 | [8] -0.117 | [9] 0.074

DCTN5 (UniProt Q9BTE1)
inactive: erlotinib 0.02 | [1] -0.01 | [3] 0.021 | [4] 0.025 | [5] 0.006 | [6] -0.04 | [7] -0.021 | [8] -0.023 | [9] 0.038

CYB5R2 (UniProt Q6BCY4)
inactive: erlotinib 0.055 | [1] -0.044 | [2] 0.05 | [3] 0.01 | [4] 0.038 | [5] 0.018 | [6] -0.072 | [7] -0.007 | [8] 0.04 | [9] -0.015

CTCF (UniProt P49711)
inactive: erlotinib -0.104 | [1] -0.171 | [2] -0.396 | [3] 0.106 | [4] -0.014 | [5] 0.084 | [6] -0.169 | [7] -0.004 | [8] 0.013 | [9] -0.092

CUL5 (UniProt Q93034)
inactive: erlotinib 0.013 | [1] 0.013 | [2] 0.054 | [3] 0.002 | [4] 0.03 | [5] 0.022 | [6] 0.023 | [7] -0.009 | [8] 0.002 | [9] 0.029

2 successive entries out of the list so far:
CTCF (UniProt P49711)
inactive: erlotinib -0.104 | [1] -0.171 | [2] -0.396 | [3] 0.106 | [4] -0.014 | [5] 0.084 | [6] -0.169 | [7] -0.004 | [8] 0.013 | [9] -0.092

CUL5 (UniProt Q93034)
inactive: erlotinib 0.013 | [1] 0.013 | [2] 0.054 | [3] 0.002 | [4] 0.03 | [5] 0.022 | [6] 0.023 | [7] -0.009 | [8] 0.002 | [9] 0.029

Carrying on:

DCAF1 (UniProt Q9Y4B6)
inactive: erlotinib -0.017 | [1] 0.1 | [2] 0.056 | [3] 0.026 | [4] 0.042 | [5] 0 | [6] -0.021 | [7] -0.016 | [8] -0.026 | [9] 0.028

CYFIP2 (UniProt Q96F07)
inactive: erlotinib -0.056 | [1] 0.075 | [2] 0.022 | [3] 0.027 | [4] 0.045 | [5] 0.017 | [6] 0.027 | [7] -0.019 | [8] -0.006 | [9] 0.041
